Some of the results follow.
target: OsWRKY34 (Oryza sativa, UniProt Q0JBA9 1-250); test: protein-binding microarray (RPBM); PBS, 2% BSA, 51.3 ng/ul salmon testes DNA, 50 uM zinc acetate, 200 nM TF, 25 C, 1 h; high values mean tight binding; conditions: protein: recombinant; tags: N-terminal polyhistidine and DsRed monomer fusion (pET32a); label: CyDye5-dUTP incorporated in the synthesized complementary strand; 3' TTTTT single-stranded linker to array surface; dsDNA, one strand shown
How it was run: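 In PBS with 2% BSA, salmon testes DNA and 50 µM zinc acetate, 200 nM protein was incubated on a custom Agilent array at 25 °C for 1 h and then washed off. The array had been made double-stranded by primer extension with Cy5-dUTP and blocked with 2% BSA. The proteins were transcription factors fused N-terminally to polyhistidine and DsRed, expressed in E. coli BL21-CodonPlus and purified on Ni–NTA. The binding signal is per-feature fluorescence intensity (arbitrary units) from an Axon 4000B scanner.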

The chains behind the UniProt entries cited, without tags or fusion partners.
UniProt Q0JBA9, entry or part of it: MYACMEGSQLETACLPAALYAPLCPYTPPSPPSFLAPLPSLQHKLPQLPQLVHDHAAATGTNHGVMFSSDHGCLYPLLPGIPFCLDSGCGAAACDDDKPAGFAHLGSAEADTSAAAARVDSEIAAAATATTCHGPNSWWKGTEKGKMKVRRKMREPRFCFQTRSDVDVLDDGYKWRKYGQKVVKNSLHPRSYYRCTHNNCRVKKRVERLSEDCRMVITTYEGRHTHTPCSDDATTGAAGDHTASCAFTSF

| Sequence | binding signal |
| --- | --- |
| TAGTTTGCCTCCAAATACTTCCCGCCAAACTCAATTTTCCCGGAGTCACCTAGTGCAG | 8740 fluorescence intensity (a.u.) |
| TCTGTTACTACTTTCTCTCCCATCCATTATTATTTCATTTCGGAGTCACCTAGTGCAG | 9760 fluorescence intensity (a.u.) |
| ATATCCACTGCTGTTTCTTTTACGCGTGTTAGTATTCTGACGGAGTCACCTAGTGCAG | 14500 fluorescence intensity (a.u.) |
| TGGCGCCGGCTTCCGCCGCATCATCGCTCACCGTTGAGCACGGAGTCACCTAGTGCAG | 8060 fluorescence intensity (a.u.) |
| CTACTGACAAGTTTGTAGTTGTTTCTGCGTTTTTTATTCTCGGAGTCACCTAGTGCAG | 12300 fluorescence intensity (a.u.) |
| GCGTCGTCCTCGACTCCTCCGCCACCCGCCTGCTCCATCTCGGAGTCACCTAGTGCAG | 8140 fluorescence intensity (a.u.) |
| ACCACGCCTTGTTGCTATACCAAACCACGAACAAATTAAACGGAGTCACCTAGTGCAG | 8500 fluorescence intensity (a.u.) |
| AAAAGAAACGCGTTGACCCTACAGATTATTATCCAGCTAGCGGAGTCACCTAGTGCAG | 10100 fluorescence intensity (a.u.) |
| AGGGTGTTTCTCCTGTGGTATTTTTGTTCCGTTGAAAACGCGGAGTCACCTAGTGCAG | 10700 fluorescence intensity (a.u.) |
| GGTGGTTGGGTACTTGGGTTGGGTTTGGGTTTTTAGGTTTCGGAGTCACCTAGTGCAG | 29100 fluorescence intensity (a.u.) |
| CATCAGTTCACAAGCTGCCCTATGGATATGATCCTTTGTTCGGAGTCACCTAGTGCAG | 8280 fluorescence intensity (a.u.) |
| GGTGTTGGAATCTCTCTCTTAAGGTCGTGTATATTTCTATCGGAGTCACCTAGTGCAG | 11000 fluorescence intensity (a.u.) |
| TTGACTGGGTTTTTCTTTTTTTTTTCTGTTTTGTTGTTTGCGGAGTCACCTAGTGCAG | 10100 fluorescence intensity (a.u.) |
| ACTGACCGACCCCGCCATTTTCGTCGCCGTCCGTTCCCCTCGGAGTCACCTAGTGCAG | 10600 fluorescence intensity (a.u.) |
| GTTCCTTCGCGCAGATCGCCGCCGCGTCTCATACTCTTCGCGGAGTCACCTAGTGCAG | 9590 fluorescence intensity (a.u.) |
| GTATGTGTGTCAGTCAAATCAAAATTTGGTCATTAATTTACGGAGTCACCTAGTGCAG | 8210 fluorescence intensity (a.u.) |
| CTCGTCTCTATCGTTTACTTATTTTGGTATGTTTTTCCAGCGGAGTCACCTAGTGCAG | 10300 fluorescence intensity (a.u.) |
| CTCTTTTTACCTCATCTTCTCCTCTTGTTCGTCTTGCTCTCGGAGTCACCTAGTGCAG | 10800 fluorescence intensity (a.u.) |
| ATTTGTGATGTTGTAGCCACCATGATTTACCACATTTCAGCGGAGTCACCTAGTGCAG | 9260 fluorescence intensity (a.u.) |
| GGTGTTGGGTGTTTGTTCGTTGGTTCCGCTGCTGCTGTTGCGGAGTCACCTAGTGCAG | 8180 fluorescence intensity (a.u.) |
| ACCTAGCAGTTTTCTGAAATGCCCAACTACCGTTCTCGTACGGAGTCACCTAGTGCAG | 9560 fluorescence intensity (a.u.) |
| CCTAACACCACTCGTTTTCCCTGCACCTGCACCTTTTTCTCGGAGTCACCTAGTGCAG | 8400 fluorescence intensity (a.u.) |
| GTTCTTTACCTACGCCCTCGCGCCTTCCGGGAACCGCTACCGGAGTCACCTAGTGCAG | 9480 fluorescence intensity (a.u.) |

Some values from above.
ACTGACCGACCCCGCCATTTTCGTCGCCGTCCGTTCCCCTCGGAGTCACCTAGTGCAG | binding signal: 10600 fluorescence intensity (a.u.)
GTTCTTTACCTACGCCCTCGCGCCTTCCGGGAACCGCTACCGGAGTCACCTAGTGCAG | binding signal: 9480 fluorescence intensity (a.u.)

From article PMC7819943, “Rice protein-binding microarrays: a tool to detect cis-acting elements near promoter regions in rice”
